PubChem BioAssay AID1508588, Peter MacCallum Cancer Centre – 2020

Assay: 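Genome-wide search for knock-downs that heighten vemurafenib action in melanoma cells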 (primary screen)
System: human WM266.4 melanoma cells (BRAF V600 mutant)
Reagent: siRNA pool against human genes, 40 nM
Time to read-out: 96 h from transfection to read-out
Conditions: vemurafenib 300 nM (about IC25), added 48 h after transfection, for 48 h; comparison arm got DMSO vehicle only
Read-out: 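Cell gain (DAPI nuclei at end minus before drug, mean of two replicates) and medium lactate by absorbance per cell, both as ratio to non-targeting siRNA, also grouped into fold-change classes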
Scale: cell gain with vemurafenib: higher = more cell gain than with non-targeting siRNA; lactate per cell with vemurafenib: higher = more lactate made per cell
Active means: 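a knock-down counts as enhancing when its fold-change classes with vehicle and with vemurafenib, taken together, show a stronger drug effect on cell gain or lactate per cell; exact class pairs not stated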
Meaning of the calls: active = enhances vemurafenib effect; inactive = no enhancement seen
Here is one part, drawn at random, of about 18,000 reagents tested. Over the whole deposit, 790 (4.4%) were called active. 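Calls rest on a combination of fold-change classes in drug and vehicle arms, not all shown here.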 Unmarked entries are inactive. The numbers tell different reagents against one gene apart. Some reagents were tested in more than one well and are listed for each.

gene knocked down | pool no. | cell gain with vemurafenib | lactate per cell with vemurafenib
ATRN (attractin) | 1 | 0.54 | 0.56
RAB11FIP3 (RAB11 family interacting protein 3) | 1 | 0.46 | 0.58
SAP30BP (SAP30 binding protein) | 1 | 0.37 | 1.4
EIF4E2 (eukaryotic translation initiation factor 4E family member 2) | 1 | 0.06 | 1.19
ANTXR2 (ANTXR cell adhesion molecule 2) | 1 | 0.43 | 0.84
ZNF576 (zinc finger protein 576) | 1 | 0.44 | 2.56
CDHR3 (cadherin related family member 3) | 1 | 0.43 | 0.82
SSRP1 (structure specific recognition protein 1) | 1 | 0.56 | 1.14
LMBR1L (limb development membrane protein 1 like) | 1 | 0.67 | 0.7
RHCE (Rh blood group CcEe antigens) | 1 | 0.47 | 0.86
SLC5A3 | 1 | 0.5 | 1.44
PSMB8 (proteasome 20S subunit beta 8) | 1 | 0.53 | 0.85
ECM2 (extracellular matrix protein 2) | 1 | 0.83 | 0.6
MRPL51 (mitochondrial ribosomal protein L51) | 1 | 0.74 | 0.32
RAC1 (Rac family small GTPase 1) | 1 | 0.14 | 2.36
NCSTN (nicastrin) | 1 | 0.37 | 1.29
TRIM64C (tripartite motif containing 64C) | 1 | -0.15 | 3.58
TRIM64C (tripartite motif containing 64C) | 2 | 0.95 | 0.92
FGD2 (FYVE, RhoGEF and PH domain containing 2) | 1 | 0.47 (active) | 0.61
DMRT3 (doublesex and mab-3 related transcription factor 3) | 1 | 0.57 | 0.6
ADGRG6 (adhesion G protein-coupled receptor G6) | 1 | 0.86 (active) | 0.47
RALGAPA2 (Ral GTPase activating protein catalytic subunit alpha 2) | 1 | 1.32 | 0.49
NBPF1 (NBPF member 1) | 1 | 0.43 | 0.5
FZD8 (frizzled class receptor 8) | 1 | 0.4 | 1.36
RBMY1A1 (RNA binding motif protein Y-linked family 1 member A1) | 1 | 0.91 | 1.58
HNRNPF (heterogeneous nuclear ribonucleoprotein F) | 1 | 0.18 (active) | 0.45
HOPX (HOP homeobox) | 1 | 0.8 | 0.99
GNLY (granulysin) | 1 | 0.68 | 0.57
RAB28 (RAB28, member RAS oncogene family) | 1 | 0.65 | 0.66
IL26 (interleukin 26) | 1 | 0.93 | 0.5
MOB3C (MOB kinase activator 3C) | 1 | 0.67 | 0.68
SPACA9 (sperm acrosome associated 9) | 1 | 0.8 | 1.15
SPAM1 (sperm adhesion molecule 1) | 1 | 0.91 | 0.78
RAD9B (RAD9 checkpoint clamp component B) | 1 | 0.74 | 0.52
PLEKHJ1 (pleckstrin homology domain containing J1) | 1 | 0.23 | 1.75
SORCS1 (sortilin related VPS10 domain containing receptor 1) | 1 | 0.77 | 0.77
TIMELESS (timeless circadian regulator) | 1 | 0.08 | 1.52
PNPLA4 | 1 | 0.89 | 0.88
PDE5A (phosphodiesterase 5A) | 1 | 0.33 (active) | 0.04
ZNF221 (zinc finger protein 221) | 1 | 0.8 | 0.71
DHRS9 (dehydrogenase/reductase 9) | 1 | 0.12 | 0.64
HINFP (histone H4 transcription factor) | 1 | 0.66 | 1.04
SLC15A1 | 1 | 0.65 | 1.25
SAMD4B (sterile alpha motif domain containing 4B) | 1 | 0.17 | 0.72
KCNH2 (potassium voltage-gated channel subfamily H member 2) | 1 | 0.21 | 0.84
KCNH2 (potassium voltage-gated channel subfamily H member 2) | 1 | 0.4 | 1.4
CARMIL2 (capping protein regulator and myosin 1 linker 2) | 1 | 0.21 | 0.93
ARHGAP30 (Rho GTPase activating protein 30) | 1 | 0.99 | 1.01
ATP2C1 (ATPase secretory pathway Ca2+ transporting 1) | 1 | 0.62 (active) | 0.19
ADRA2B (adrenoceptor alpha 2B) | 1 | 0.78 | 1.23
POLR3C (RNA polymerase III subunit C) | 1 | 0.77 | 0.67
CADPS2 (calcium dependent secretion activator 2) | 1 | 0.06 | 2.15
VGLL4 (vestigial like family member 4) | 1 | 0.34 | 0.94
C2CD2 (C2 calcium dependent domain containing 2) | 1 | 0.47 | 1.12
EIF3L (eukaryotic translation initiation factor 3 subunit L) | 1 | 0.43 | 0.87
CLCN5 (Cl-/H+ antiporter 5) | 1 | 1.04 | 1.36
TIPIN (TIMELESS interacting protein) | 1 | 0.18 | 1.38
TAF4B (TATA-box binding protein associated factor 4b) | 1 | 0.56 | 0.64
BPIFC (BPI fold containing family C) | 1 | 0.3 | 2.45
MEIG1 (meiosis/spermiogenesis associated 1) | 1 | 1.02 | 0.88
C10orf67 (chromosome 10 open reading frame 67) | 1 | 0.69 | 1.19
NPTX1 (neuronal pentraxin 1) | 1 | 0.59 | 0.97
SPACA5B (sperm acrosome associated 5B) | 1 | 0.63 | 1.1
PRPF3 (pre-mRNA processing factor 3) | 1 | 0.12 | 1.62
LYPLAL1 (lysophospholipase like 1) | 1 | 0.85 | 0.86
TLE4 (TLE family member 4, transcriptional corepressor) | 1 | 0.36 | 1.64
MAMLD1 (mastermind like domain containing 1) | 1 | 0.44 | 0.54
MYRF (myelin regulatory factor) | 1 | 0.82 | 1.1
CENPM (centromere protein M) | 1 | 0.67 | 0.44
DCUN1D2 (defective in cullin neddylation 1 domain containing 2) | 1 | 0.87 | 1.04
LATS2 (large tumor suppressor kinase 2) | 1 | 0.53 | 1.29
HOXA1 (homeobox A1) | 1 | 0.52 | 1.16
SEC14L4 (SEC14 like lipid binding 4) | 1 | 0.17 | 2.44
STRADB (STE20 related adaptor beta) | 1 | 0.85 | 0.44
PDE4A (phosphodiesterase 4A) | 1 | 0.74 | 1.32
MORC3 (MORC family CW-type zinc finger 3) | 1 | 0.66 | 1.68
KLHL28 (kelch like family member 28) | 1 | 0.5 | 1.29
LYPLA2 (lysophospholipase 2) | 1 | 0.58 | 1.22
FMNL3 (formin like 3) | 1 | 0.82 | 0.88
SHOX (SHOX homeobox) | 1 | 1.17 | 0.94
PYCR1 (pyrroline-5-carboxylate reductase 1) | 1 | 0.55 | 1.88
KCNK2 (potassium two pore domain channel subfamily K member 2) | 1 | 0.56 | 1.45
DCP2 (decapping mRNA 2) | 1 | 1.19 | 0.88
CCDC70 (coiled-coil domain containing 70) | 1 | 0.71 | 0.32

12 entries from above, reformatted:
{"gene knocked down":"DMRT3 (doublesex and mab-3 related transcription factor 3)","pool no.":1,"cell gain with vemurafenib":0.57,"lactate per cell with vemurafenib":0.6}
{"gene knocked down":"ADGRG6 (adhesion G protein-coupled receptor G6)","pool no.":1,"cell gain with vemurafenib":"0.86 (active)","lactate per cell with vemurafenib":0.47}
{"gene knocked down":"RALGAPA2 (Ral GTPase activating protein catalytic subunit alpha 2)","pool no.":1,"cell gain with vemurafenib":1.32,"lactate per cell with vemurafenib":0.49}
{"gene knocked down":"NBPF1 (NBPF member 1)","pool no.":1,"cell gain with vemurafenib":0.43,"lactate per cell with vemurafenib":0.5}
{"gene knocked down":"FZD8 (frizzled class receptor 8)","pool no.":1,"cell gain with vemurafenib":0.4,"lactate per cell with vemurafenib":1.36}
{"gene knocked down":"RBMY1A1 (RNA binding motif protein Y-linked family 1 member A1)","pool no.":1,"cell gain with vemurafenib":0.91,"lactate per cell with vemurafenib":1.58}
{"gene knocked down":"HNRNPF (heterogeneous nuclear ribonucleoprotein F)","pool no.":1,"cell gain with vemurafenib":"0.18 (active)","lactate per cell with vemurafenib":0.45}
{"gene knocked down":"HOPX (HOP homeobox)","pool no.":1,"cell gain with vemurafenib":0.8,"lactate per cell with vemurafenib":0.99}
{"gene knocked down":"GNLY (granulysin)","pool no.":1,"cell gain with vemurafenib":0.68,"lactate per cell with vemurafenib":0.57}
{"gene knocked down":"RAB28 (RAB28, member RAS oncogene family)","pool no.":1,"cell gain with vemurafenib":0.65,"lactate per cell with vemurafenib":0.66}
{"gene knocked down":"IL26 (interleukin 26)","pool no.":1,"cell gain with vemurafenib":0.93,"lactate per cell with vemurafenib":0.5}
{"gene knocked down":"MOB3C (MOB kinase activator 3C)","pool no.":1,"cell gain with vemurafenib":0.67,"lactate per cell with vemurafenib":0.68}
